From publication PMC7956269

B1: Mcm6 (protein, UniProt Q14566 1-821)
chain: MDLAAAAEPGAGSQHLEVRDEVAEKCQKLFLDFLEEFQSSDGEIKYLQLAEELIRPERNTLVVSFVDLEQFNQQLSTTIQEEFYRVYPYLCRALKTFVKDRKEIPLAKDFYVAFQDLPTRHKIRELTSSRIGLLTRISGQVVRTHPVHPELVSGTFLCLDCQTVIRDVEQQFKYTQPNICRNPVCANRRRFLLDTNKSRFVDFQKVRIQETQAELPRGSIPRSLEVILRAEAVESAQAGDKCDFTGTLIVVPDVSKLSTPGARAETNSRVSGVDGYETEGIRGLRALGVRDLSYRLVFLACCVAPTNPRFGGKELRDEEQTAESIKNQMTVKEWEKVFEMSQDKNLYHNLCTSLFPTIHGNDEVKRGVLLMLFGGVPKTTGEGTSLRGDINVCIVGDPSTAKSQFLKHVEEFSPRAVYTSGKASSAAGLTAAVVRDEESHEFVIEAGALMLADNGVCCIDEFDKMDVRDQVAIHEAMEQQTISITKAGVKATLNARTSILAAANPISGHYDRSKSLKQNINLSAPIMSRFDLFFILVDECNEVTDYAIARRIVDLHSRIEESIDRVYSLDDIRRYLLFARQFKPKISKESEDFIVEQYKHLRQRDGSGVTKSSWRITVRQLESMIRLSEAMARMHCCDEVQPKHVKEAFRLLNKSIIRVETPDVNLDQEEEIQMEVDEGAGGINGHADSPAPVNGINGYNEDINQESAPKASLRLGFSEYCRISNLIVLHLRKVEEEEDESALKRSELVNWYLKEIESEIDSEEELINKKRIIEKVIHRLTHYDHVLIELTQAGLKGSTEGSESYEEDPYLVVNPNYLLED
B2: Mccc1 (protein, UniProt Q96RQ3 42-725)
chain: TTATGRNITKVLIANRGEIACRVMRTAKKLGVQTVAVYSEADRNSMHVDMADEAYSIGPAPSQQSYLSMEKIIQVAKTSAAQAIHPGCGFLSENMEFAELCKQEGIIFIGPPPSAIRDMGIKSTSKSIMAAAGVPVVEGYHGEDQSDQCLKEHARRIGYPVMIKAVRGGGGKGMRIVRSEQEFQEQLESARREAKKSFNDDAMLIEKFVDTPRHVEVQVFGDHHGNAVYLFERDCSVQRRHQKIIEEAPAPGIKSEVRKKLGEAAVRAAKAVNYVGAGTVEFIMDSKHNFCFMEMNTRLQVEHPVTEMITGTDLVEWQLRIAAGEKIPLSQEEITLQGHAFEARIYAEDPSNNFMPVAGPLVHLSTPRADPSTRIETGVRQGDEVSVHYDPMIAKLVVWAADRQAALTKLRYSLRQYNIVGLHTNIDFLLNLSGHPEFEAGNVHTDFIPQHHKQLLLSRKAAAKESLCQAALGLILKEKAMTDTFTLQAHDQFSPFSSSSGRRLNISYTRNMTLKDGKNNVAIAVTYNHDGSYSMQIEDKTFQVLGNLYSEGDCTYLKCSVNGVASKAKLIILENTIYLFSKEGSIEIDIPVPKYLSSVSSQETQGGPLAPMTGTIEKVFVKAGDKVKAGDSLMVMIAMKMEHTIKSPKDGTVKKVFYREGAQANRHTPLVEFEEEESDKRESE
B3: Nmd3 (protein, UniProt Q96D46 1-503)
chain: MEYMAESTDRSPGHILCCECGVPISPNPANICVACLRSKVDISQGIPKQVSISFCKQCQRYFQPPGTWIQCALESRELLALCLKKIKAPLSKVRLVDAGFVWTEPHSKRLKVKLTIQKEVMNGAILQQVFVVDYVVQSQMCGDCHRVEAKDFWKAVIQVRQKTLHKKTFYYLEQLILKYGMHQNTLRIKEIHDGLDFYYSSKQHAQKMVEFLQCTVPCRYKASQRLISQDIHSNTYNYKSTFSVEIVPICKDNVVCLSPKLAQSLGNMNQICVCIRVTSAIHLIDPNTLQVADIDGSTFWSHPFNSLCHPKQLEEFIVMECSIVQDIKRAAGAGMISKKHTLGEVWVQKTSEMNTDKQYFCRTHLGHLLNPGDLVLGFDLANCNLNDEHVNKMNSDRVPDVVLIKKSYDRTKRQRRRNWKLKELARERENMDTDDERQYQDFLEDLEEDEAIRKNVNIYRDSAIPVESDTDDEGAPRISLAEMLEDLHISQDATGEEGASMLT
B4: Caap1 (protein, UniProt Q9H8G2 1-361)
chain: MTGKKSSREKRRKRSSQEAAAALAAPDIVPALASGSSGSTSGCGSAGGCGSVSCCGNANFSGSVTGGGSGGSCWGGSSVERSERRKRRSTDSSSVSGSLQQETKYILPTLEKELFLAEHSDLEEGGLDLTVSLKPVSFYISDKKEMLQQCFCIIGEKKLQKMLPDVLKNCSIEEIKKLCQEQLELLSEKKILKILEGDNGMDSDMEEEADDGSKMGSDLVSQQDICIDSASSVRENKQPEGLELKQGKGEDSDVLSINADAYDSDIEGPCNEEAAAPEAPENTVQSEAGQIDDLEKDIEKSVNEILGLAESSPNEPKAATLAVPPPEDVQPSAQQLELLELEMRARAIKALMKAGDIKKPA
B5: Abcf2 (protein, UniProt Q9UG63 1-623)
chain: MPSDLAKKKAAKKKEAAKARQRPRKGHEENGDVVTEPQVAEKNEANGRETTEVDLLTKELEDFEMKKAAARAVTGVLASHPNSTDVHIINLSLTFHGQELLSDTKLELNSGRRYGLIGLNGIGKSMLLSAIGKREVPIPEHIDIYHLTREMPPSDKTPLHCVMEVDTERAMLEKEAERLAHEDAECEKLMELYERLEELDADKAEMRASRILHGLGFTPAMQRKKLKDFSGGWRMRVALARALFIRPFMLLLDEPTNHLDLDACVWLEEELKTFKRILVLVSHSQDFLNGVCTNIIHMHNKKLKYYTGNYDQYVKTRLELEENQMKRFHWEQDQIAHMKNYIARFGHGSAKLARQAQSKEKTLQKMMASGLTERVVSDKTLSFYFPPCGKIPPPVIMVQNVSFKYTKDGPCIYNNLEFGIDLDTRVALVGPNGAGKSTLLKLLTGELLPTDGMIRKHSHVKIGRYHQHLQEQLDLDLSPLEYMMKCYPEIKEKEEMRKIIGRYGLTGKQQVSPIRNLSDGQKCRVCLAWLAWQNPHMLFLDEPTNHLDIETIDALADAINEFEGGMMLVSHDFRLIQQVAQEIWVCEKQTITKWPGDILAYKEHLKSKLVDEEPQLTKRTHNV
B6: Uhrf1 (protein, UniProt Q96T88 1-793)
chain: MWIQVRTMDGRQTHTVDSLSRLTKVEELRRKIQELFHVEPGLQRLFYRGKQMEDGHTLFDYEVRLNDTIQLLVRQSLVLPHSTKERDSELSDTDSGCCLGQSESDKSSTHGEAAAETDSRPADEDMWDETELGLYKVNEYVDARDTNMGAWFEAQVVRVTRKAPSRDEPCSSTSRPALEEDVIYHVKYDDYPENGVVQMNSRDVRARARTIIKWQDLEVGQVVMLNYNPDNPKERGFWYDAEISRKRETRTARELYANVVLGDDSLNDCRIIFVDEVFKIERPGEGSPMVDNPMRRKSGPSCKHCKDDVNRLCRVCACHLCGGRQDPDKQLMCDECDMAFHIYCLDPPLSSVPSEDEWYCPECRNDASEVVLAGERLRESKKKAKMASATSSSQRDWGKGMACVGRTKECTIVPSNHYGPIPGIPVGTMWRFRVQVSESGVHRPHVAGIHGRSNDGAYSLVLAGGYEDDVDHGNFFTYTGSGGRDLSGNKRTAEQSCDQKLTNTNRALALNCFAPINDQEGAEAKDWRSGKPVRVVRNVKGGKNSKYAPAEGNRYDGIYKVVKYWPEKGKSGFLVWRYLLRRDDDEPGPWTKEGKDRIKKLGLTMQYPEGYLEALANREREKENSKREEEEQQEGGFASPRTGKGKWKRKSAGGGPSRAGSPRRTSKKTKVEPYSLTAQQSSLIREDKSNAKLWNEVLASLKDRPASGSPFQLFLSKVEETFQCICCQELVFRPITTVCQHNVCKDCLDRSFRAQVFSCPACRYDLGRSYAMQVNQPLQTVLNQLFPGYGNGR

These binders were tested against Biotin-FOXC1 (mouse) (UniProt Q61572) (assay: affinity purification with mass spectrometry; streptavidin-agarose precipitation of biotinylated FOXC1 from nuclear extract of stable HEK293T cells (293T-Biotin-FOXC1); IP350 buffer (350 mM NaCl, 20 mM Tris-HCl pH 7.5, 0.5% NP40, 1 mM EDTA, 10% glycerin); SDS-PAGE, LC-ESI-MS/MS; proteins of the 293T-Biotin control deducted).

Question: For B1, which binding is on record?
Answer: Its binding is “binds”.

Question: For B2, which binding is on record?
Answer: Its binding is “binds”.

Question: Which binding does the source give for B3 here?
Answer: Its binding is “binds”.

Question: B4 was tested. Which binding did it give?
Answer: The binding was “binds”.

Question: How did the binding turn out when B5 was run?
Answer: The binding was “binds”.

Question: B6 was tested. Which binding did it give?
Answer: The binding was “binds”.

Results are given in words; binding and its absence hold for the method and conditions named. Binding seen in cells or lysates may run through a third protein. Here binding means that the protein was enriched with, or labelled near, the bait; the list need not be complete.
